Laboratory results taken from patent US20230031629A1.
Results are given in words; binding and its absence hold for the method and conditions named. Some entries that bind do so weakly or less than the wild type.

Target: T1, human CD300f (human) (UniProt Q8TDQ1)
T1 sequence (looked up): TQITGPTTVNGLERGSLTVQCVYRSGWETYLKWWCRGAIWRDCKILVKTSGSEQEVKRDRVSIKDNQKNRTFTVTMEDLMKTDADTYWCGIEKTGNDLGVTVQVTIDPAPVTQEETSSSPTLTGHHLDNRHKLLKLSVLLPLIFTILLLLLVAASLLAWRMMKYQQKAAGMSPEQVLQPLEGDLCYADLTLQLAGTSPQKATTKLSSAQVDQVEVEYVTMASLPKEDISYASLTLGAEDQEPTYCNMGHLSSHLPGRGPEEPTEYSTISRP
Assay: flow cytometry on U937 cells (cell surface CD300f)

B1: chimeric DCR-2 (antibody, human IgG1, kappa, V domains shown)
VH: ESGPMESGGGLVQPGGPLKLSCAASGFGFSGSWMSWVRQAPGKGLEWIGQINPDSSTINYTPSLKDKFIISRDNAKNTLYLQINKVRSEDTALYYCARRGFFEGYSAWFAYWGQGTLVTVSA
VL: DILMTQTPKFLLVSAGDRVTITCKASQSVSNDVAWYQQKPGQSPSLLIYYASNRNTGVPDRFTGSGYETDFTFTISTVQAEDLAVYFCQQDYTSPWTFGGGTKLEIKR
For B1, the binding was “binds”.
